Data reported in the supplement of paper PMC10849652.
The list shows a part of the results.

By UniProt entry, the sequences of proteins in these tests, tags left out. Where a name states a change or a piece, a line headed by the entry shows the natural chain unless it says otherwise.
UniProt Q8N2K1: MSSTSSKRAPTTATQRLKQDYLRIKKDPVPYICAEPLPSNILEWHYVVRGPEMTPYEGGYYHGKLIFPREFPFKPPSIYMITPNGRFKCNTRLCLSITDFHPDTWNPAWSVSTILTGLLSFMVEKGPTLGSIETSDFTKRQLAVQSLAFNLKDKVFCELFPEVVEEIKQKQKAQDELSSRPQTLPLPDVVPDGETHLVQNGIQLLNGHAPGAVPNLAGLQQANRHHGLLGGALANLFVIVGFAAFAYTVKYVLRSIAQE
UniProt Q96ET8: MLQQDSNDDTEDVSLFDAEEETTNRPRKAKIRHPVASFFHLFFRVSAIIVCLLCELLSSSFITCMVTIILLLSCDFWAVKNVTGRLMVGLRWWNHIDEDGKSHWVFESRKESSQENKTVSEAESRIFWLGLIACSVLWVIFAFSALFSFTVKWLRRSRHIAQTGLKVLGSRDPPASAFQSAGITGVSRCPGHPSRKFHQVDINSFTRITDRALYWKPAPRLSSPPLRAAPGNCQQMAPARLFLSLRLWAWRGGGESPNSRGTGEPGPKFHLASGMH
UniProt A2RUC4: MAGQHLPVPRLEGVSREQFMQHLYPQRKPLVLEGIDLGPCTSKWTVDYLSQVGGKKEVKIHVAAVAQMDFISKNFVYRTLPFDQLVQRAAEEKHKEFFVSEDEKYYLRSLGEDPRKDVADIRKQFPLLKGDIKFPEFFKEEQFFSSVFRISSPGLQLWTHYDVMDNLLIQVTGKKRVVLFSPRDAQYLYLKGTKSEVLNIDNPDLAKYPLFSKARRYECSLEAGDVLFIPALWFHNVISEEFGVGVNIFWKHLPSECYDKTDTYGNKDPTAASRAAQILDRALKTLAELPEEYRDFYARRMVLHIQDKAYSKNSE
UniProt P29597: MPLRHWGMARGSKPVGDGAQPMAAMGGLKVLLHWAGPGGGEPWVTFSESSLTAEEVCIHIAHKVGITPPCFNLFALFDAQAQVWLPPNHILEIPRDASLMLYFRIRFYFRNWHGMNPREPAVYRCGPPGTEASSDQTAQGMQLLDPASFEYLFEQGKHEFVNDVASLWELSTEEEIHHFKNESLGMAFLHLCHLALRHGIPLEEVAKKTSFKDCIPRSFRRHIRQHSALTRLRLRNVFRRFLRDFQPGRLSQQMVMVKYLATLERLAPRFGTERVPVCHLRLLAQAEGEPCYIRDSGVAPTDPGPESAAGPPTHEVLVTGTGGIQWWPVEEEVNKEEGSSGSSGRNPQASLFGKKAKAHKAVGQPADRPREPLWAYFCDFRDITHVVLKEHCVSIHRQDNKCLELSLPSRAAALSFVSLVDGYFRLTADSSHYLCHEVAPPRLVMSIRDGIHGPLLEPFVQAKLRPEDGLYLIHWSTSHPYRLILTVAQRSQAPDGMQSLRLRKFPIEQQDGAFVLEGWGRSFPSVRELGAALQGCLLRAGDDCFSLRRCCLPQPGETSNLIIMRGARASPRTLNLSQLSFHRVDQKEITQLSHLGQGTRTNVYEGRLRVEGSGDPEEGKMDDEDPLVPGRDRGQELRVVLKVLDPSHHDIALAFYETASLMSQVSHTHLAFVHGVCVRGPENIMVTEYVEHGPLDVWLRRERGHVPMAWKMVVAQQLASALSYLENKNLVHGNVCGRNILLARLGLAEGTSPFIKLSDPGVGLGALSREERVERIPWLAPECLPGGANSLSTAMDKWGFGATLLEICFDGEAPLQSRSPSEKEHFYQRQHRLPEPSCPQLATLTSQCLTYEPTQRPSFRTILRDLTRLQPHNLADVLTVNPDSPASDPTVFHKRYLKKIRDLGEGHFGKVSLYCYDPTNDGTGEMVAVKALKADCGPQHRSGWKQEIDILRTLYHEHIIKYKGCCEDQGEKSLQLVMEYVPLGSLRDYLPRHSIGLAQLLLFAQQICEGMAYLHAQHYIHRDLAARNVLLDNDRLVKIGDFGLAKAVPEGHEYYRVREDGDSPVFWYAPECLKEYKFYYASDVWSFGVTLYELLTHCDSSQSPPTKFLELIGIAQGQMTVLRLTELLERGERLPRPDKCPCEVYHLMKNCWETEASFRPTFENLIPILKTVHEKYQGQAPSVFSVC
UniProt Q9H0U9: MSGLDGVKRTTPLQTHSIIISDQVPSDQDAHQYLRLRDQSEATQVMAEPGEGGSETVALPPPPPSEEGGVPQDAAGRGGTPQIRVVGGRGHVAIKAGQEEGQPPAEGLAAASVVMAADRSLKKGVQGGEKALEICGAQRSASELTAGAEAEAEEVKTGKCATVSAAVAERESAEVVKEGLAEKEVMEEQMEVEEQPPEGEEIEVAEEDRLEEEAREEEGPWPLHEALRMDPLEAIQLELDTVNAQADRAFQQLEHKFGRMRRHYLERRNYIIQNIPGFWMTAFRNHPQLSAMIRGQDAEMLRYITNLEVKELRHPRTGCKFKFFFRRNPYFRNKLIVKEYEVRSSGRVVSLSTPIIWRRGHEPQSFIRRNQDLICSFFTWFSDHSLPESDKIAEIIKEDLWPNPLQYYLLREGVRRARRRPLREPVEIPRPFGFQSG
UniProt Q16881, whole entry, looked up: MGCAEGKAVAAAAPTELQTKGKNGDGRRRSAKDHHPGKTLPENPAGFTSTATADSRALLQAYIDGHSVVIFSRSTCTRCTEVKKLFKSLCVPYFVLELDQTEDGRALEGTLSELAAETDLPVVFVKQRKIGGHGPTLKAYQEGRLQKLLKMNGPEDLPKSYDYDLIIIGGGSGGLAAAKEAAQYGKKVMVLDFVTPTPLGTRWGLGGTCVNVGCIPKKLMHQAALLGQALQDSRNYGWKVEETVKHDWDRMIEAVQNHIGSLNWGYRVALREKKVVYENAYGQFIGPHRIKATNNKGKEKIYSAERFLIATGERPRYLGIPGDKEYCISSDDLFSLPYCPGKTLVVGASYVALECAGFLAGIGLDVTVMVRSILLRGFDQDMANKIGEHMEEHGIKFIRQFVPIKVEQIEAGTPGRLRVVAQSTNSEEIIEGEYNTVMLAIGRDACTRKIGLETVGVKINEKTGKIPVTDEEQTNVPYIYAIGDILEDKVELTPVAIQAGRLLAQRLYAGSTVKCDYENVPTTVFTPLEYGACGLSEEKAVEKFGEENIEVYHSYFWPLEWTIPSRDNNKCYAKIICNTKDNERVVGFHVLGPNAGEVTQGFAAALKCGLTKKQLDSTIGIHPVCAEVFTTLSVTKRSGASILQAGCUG
UniProt Q8WUA8: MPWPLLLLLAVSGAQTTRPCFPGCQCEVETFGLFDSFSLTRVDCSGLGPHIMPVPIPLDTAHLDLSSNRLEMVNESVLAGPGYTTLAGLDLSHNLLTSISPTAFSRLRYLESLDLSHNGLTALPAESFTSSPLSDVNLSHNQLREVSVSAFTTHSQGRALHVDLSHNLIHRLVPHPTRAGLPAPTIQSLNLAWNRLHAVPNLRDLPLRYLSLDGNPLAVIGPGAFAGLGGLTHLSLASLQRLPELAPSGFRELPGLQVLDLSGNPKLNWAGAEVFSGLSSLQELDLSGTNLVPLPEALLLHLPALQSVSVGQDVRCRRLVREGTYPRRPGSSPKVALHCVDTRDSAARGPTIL
UniProt Q3B726, whole entry, looked up: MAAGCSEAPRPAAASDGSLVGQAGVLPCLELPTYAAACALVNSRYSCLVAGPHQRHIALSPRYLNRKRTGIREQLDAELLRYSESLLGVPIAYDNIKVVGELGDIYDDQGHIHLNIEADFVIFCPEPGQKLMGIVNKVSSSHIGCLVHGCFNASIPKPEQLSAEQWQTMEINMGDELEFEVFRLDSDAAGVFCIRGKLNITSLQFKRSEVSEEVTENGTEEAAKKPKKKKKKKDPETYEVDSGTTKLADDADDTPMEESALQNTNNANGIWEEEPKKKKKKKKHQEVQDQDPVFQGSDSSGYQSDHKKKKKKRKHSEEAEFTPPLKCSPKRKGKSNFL
UniProt Q12999: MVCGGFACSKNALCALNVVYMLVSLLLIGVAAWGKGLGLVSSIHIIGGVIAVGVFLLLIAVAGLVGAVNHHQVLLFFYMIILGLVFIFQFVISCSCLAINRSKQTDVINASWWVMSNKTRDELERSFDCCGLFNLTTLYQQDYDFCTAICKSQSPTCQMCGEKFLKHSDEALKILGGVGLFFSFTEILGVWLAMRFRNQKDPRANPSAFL
UniProt Q16762: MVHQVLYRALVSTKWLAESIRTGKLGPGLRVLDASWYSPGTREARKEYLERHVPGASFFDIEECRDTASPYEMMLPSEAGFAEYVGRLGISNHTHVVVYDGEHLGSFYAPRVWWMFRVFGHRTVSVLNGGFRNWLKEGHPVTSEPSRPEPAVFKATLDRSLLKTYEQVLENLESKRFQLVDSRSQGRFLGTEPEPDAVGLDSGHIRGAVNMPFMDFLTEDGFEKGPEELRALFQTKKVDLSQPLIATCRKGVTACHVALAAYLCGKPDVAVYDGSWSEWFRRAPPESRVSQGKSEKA
UniProt O75896: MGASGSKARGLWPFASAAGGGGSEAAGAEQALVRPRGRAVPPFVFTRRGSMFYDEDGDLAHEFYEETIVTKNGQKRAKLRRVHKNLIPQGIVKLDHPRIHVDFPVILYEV
UniProt O14933: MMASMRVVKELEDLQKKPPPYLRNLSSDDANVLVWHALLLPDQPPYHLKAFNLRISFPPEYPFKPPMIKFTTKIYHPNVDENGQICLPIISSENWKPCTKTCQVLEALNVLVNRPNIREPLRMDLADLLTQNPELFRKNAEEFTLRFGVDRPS
UniProt Q96N46: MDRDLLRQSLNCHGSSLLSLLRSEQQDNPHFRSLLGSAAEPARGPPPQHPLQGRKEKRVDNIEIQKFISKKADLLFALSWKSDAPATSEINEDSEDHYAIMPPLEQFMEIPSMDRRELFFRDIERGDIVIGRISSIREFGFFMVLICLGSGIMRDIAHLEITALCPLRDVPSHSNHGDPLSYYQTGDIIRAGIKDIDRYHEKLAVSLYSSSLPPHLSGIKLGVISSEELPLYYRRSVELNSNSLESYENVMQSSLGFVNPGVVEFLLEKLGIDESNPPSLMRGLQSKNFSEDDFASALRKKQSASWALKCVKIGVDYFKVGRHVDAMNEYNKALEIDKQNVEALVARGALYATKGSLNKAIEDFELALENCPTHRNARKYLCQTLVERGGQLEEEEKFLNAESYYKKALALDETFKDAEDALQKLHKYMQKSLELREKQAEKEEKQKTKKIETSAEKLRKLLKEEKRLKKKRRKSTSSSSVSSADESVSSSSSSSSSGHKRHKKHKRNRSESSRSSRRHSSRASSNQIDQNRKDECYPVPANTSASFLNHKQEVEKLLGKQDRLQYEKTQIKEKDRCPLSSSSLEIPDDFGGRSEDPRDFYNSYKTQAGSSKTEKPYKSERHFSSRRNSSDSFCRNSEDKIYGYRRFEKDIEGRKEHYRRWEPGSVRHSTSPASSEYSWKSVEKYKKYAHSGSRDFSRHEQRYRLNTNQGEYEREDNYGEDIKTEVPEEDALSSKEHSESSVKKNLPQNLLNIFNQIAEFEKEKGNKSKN
UniProt Q96FV3: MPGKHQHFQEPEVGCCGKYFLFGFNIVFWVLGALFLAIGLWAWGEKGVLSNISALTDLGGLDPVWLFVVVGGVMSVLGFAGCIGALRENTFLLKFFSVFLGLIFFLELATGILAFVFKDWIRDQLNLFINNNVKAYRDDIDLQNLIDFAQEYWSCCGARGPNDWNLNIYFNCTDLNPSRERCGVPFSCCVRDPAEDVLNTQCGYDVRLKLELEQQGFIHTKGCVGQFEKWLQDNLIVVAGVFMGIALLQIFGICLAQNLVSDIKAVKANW
UniProt Q96RR1: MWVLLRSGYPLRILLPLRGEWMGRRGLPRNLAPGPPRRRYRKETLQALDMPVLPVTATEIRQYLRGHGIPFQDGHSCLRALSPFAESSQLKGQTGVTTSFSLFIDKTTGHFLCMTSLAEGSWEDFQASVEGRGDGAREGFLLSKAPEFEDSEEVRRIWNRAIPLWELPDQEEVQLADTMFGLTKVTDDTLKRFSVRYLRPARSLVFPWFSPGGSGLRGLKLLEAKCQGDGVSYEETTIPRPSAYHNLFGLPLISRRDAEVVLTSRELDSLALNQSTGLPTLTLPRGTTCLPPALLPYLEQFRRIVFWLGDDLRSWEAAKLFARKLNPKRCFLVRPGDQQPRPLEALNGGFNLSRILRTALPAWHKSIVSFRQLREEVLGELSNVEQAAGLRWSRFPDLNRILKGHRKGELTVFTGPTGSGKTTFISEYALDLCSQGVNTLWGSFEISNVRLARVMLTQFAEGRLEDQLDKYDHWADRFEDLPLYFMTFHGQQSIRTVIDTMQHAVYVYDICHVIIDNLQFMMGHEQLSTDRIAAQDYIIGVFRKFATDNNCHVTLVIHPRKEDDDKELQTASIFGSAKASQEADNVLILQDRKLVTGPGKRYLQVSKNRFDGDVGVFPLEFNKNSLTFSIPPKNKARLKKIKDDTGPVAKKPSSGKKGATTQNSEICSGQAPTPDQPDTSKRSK
UBE2L5, A0A1B0GUS4, UniProt A0A1B0GUS4, whole entry, looked up: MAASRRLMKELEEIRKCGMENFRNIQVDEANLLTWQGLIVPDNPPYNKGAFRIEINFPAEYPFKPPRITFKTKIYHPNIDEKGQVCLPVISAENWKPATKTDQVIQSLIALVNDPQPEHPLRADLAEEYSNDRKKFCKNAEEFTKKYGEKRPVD

Compound: CCCS(=O)(=O)Nc1ccc(F)c(C(=O)c2c[nH]c3ncc(Cl)cc23)c1F
Experiment: log2 fold change, soluble protein after heating vs DMSO (PISA); higher = thermal stabilisation; K562 cells, 10 uM, 30 min; active = over 0.2 and 3.5 SD of the protein, either way, in both replicates (recomputed)
In short: (§1)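 K562 cells at 2×10^6 cells/mL were treated with 10 μM compound for 30 min. Aliquots were heated for 3 min across 48°C-58°C, pooled, and extracted in PBS with 0.5% NP-40 at 4°C; soluble protein was the supernatant after 21,000xg for 90 min. Soluble protein was quantified by TMTpro 16plex LC-MS/MS with channel sums equalised, and reported as log2 fold change in thermal stability against DMSO controls, with values from duplicates.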

log2 fold change, inactive:
UBE2J2 isoform 3 (UniProt Q8N2K1) -0.027
TVP23C (UniProt Q96ET8) -0.178
TTC17 isoform 2 (UniProt Q96AE7) -0.229
UBAP2L (UniProt F8W726) 0.004
TYW5 (UniProt A2RUC4) -0.154
TYK2 (UniProt P29597) 0.141
TSPYL1 (UniProt Q9H0U9) 0.081
TXNRD1 isoform 7 (UniProt Q16881) 0.049
TSKU (UniProt Q8WUA8) 0.015
TUBGCP5 (UniProt Q96RT8) -0.024
TWISTNB (UniProt Q3B726) -0.048
TTC21B (UniProt Q7Z4L5) -0.2
TSPAN31 (UniProt Q12999) 0.023
TST (UniProt Q16762) 0.034
TUBA4A (UniProt C9JJQ8) -0.065

Compound: CCCc1cc(C)[nH]c(=O)c1CNC(=O)c1cc(-c2ccnc(N3CCN(C)CC3)c2)cc2c1cnn2C(C)C
Experiment: as above
In short: as §1

log2 fold change, inactive:
TVP23C (UniProt Q96ET8) -0.118
UBAP2L (UniProt F8W726) 0.014
TYW5 (UniProt A2RUC4) 0.024
TSPAN4 (UniProt O14817) -0.011
U2AF1L5 (UniProt P0DN76) 0.06
TTR (UniProt P02766) 0.178
TWISTNB (UniProt Q3B726) 0.066
TSPAN31 (UniProt Q12999) 0.112
TUSC2 (UniProt O75896) -0.367
TST (UniProt Q16762) 0.122

Compound: CCN(CC)Cc1ccc2cc(COC(=O)Nc3ccc(C(=O)NO)cc3)ccc2c1 [givinostat]
Experiment: as above
In short: as §1

log2 fold change, inactive:
UBE2L6 (UniProt O14933) 0.041
UBE2J2 isoform 3 (UniProt Q8N2K1) 0.009
TVP23C (UniProt Q96ET8) 0.043
TTC14 (UniProt Q96N46) 0.311
TTC17 isoform 2 (UniProt Q96AE7) 0.035
UBAP2L (UniProt F8W726) -0.067
TYW5 (UniProt A2RUC4) 0.077
TSPAN17 isoform 4 (UniProt Q96FV3) -0.124
TSPAN4 (UniProt O14817) 0.06
TSPYL1 (UniProt Q9H0U9) 0.055
TXNRD1 isoform 7 (UniProt Q16881) 0.403
TSKU (UniProt Q8WUA8) 0.069
TUBGCP5 (UniProt Q96RT8) -0.203
U2AF1L5 (UniProt P0DN76) 0.563
TWNK (UniProt Q96RR1) 0.087
TTR (UniProt P02766) -0.102
TWISTNB (UniProt Q3B726) 0.148
TSPAN31 (UniProt Q12999) -0.165
TUSC2 (UniProt O75896) 0.034
TST (UniProt Q16762) 0
UBE2L5, A0A1B0GUS4 -0.096
